PubChem BioAssay AID1053208 | Peter MacCallum Cancer Centre, 2014
In all, the deposit lists about 17,000 reagents; this is an unselected part. In the full data, 788 (4.7%) are marked active. 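Calls rest on z-score classes alone; an extra cut-off of viability at most 70% of control was not applied to them.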 Unmarked entries are inactive. The numbers tell different reagents against one gene apart. Not all columns of the deposit are shown.

Test: 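Synthetic lethal interactions between gene loss and doxorubicin in osteosarcoma cells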 (primary screen)
Cell system: mouse osteosarcoma cells, early-passage culture from an engineered mouse model of fibroblastic bone tumour
Reagent: siRNA pool against mouse genes, 40 nM
Timing: about 120 h (48 h before drug, then 72 h with drug)
Treatment: doxorubicin 100 nM for 72 h, roughly 30-40% inhibitory dose
Read-out: 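Luminescent ATP signal taken as viability with or without 100 nM doxorubicin for 72 h; mean of two wells set against non-targeting siRNA and turned into robust z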
Reading the numbers: viability z-score with doxorubicin: higher = more viable cells under doxorubicin; viability z-score without drug: higher = more viable cells with knock-down alone
Active means: 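Called active if knock-down leaves viability unchanged without drug (z within -2 to 2) but lowers it with doxorubicin (z at or under -2)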

no.	gene	pool no.	combined z-score class	viability z-score with doxorubicin	viability z-score without drug
1	Ncam1	1	no change with or without drug	0.22	-0.84
2	Tcstv2a	1	no change with or without drug	1.12	1.52
3	Mpp2	1	no change with or without drug	-1.12	-1.01
4	Gipr	1	no change with or without drug	0.22	0
5	Srgn	1	no change with or without drug	0	1.18
6	Chst8	1	no change with or without drug	0.45	1.18
7	Rasgef1b	1	high cell count with doxorubicin only	2.02	1.69
8	Cacng3	1	no change with or without drug	0.34	1.69
9	Sppl2a	1	no change with or without drug	-1.46	-0.34
10	Guca1b	1	no change with or without drug	0.22	-0.17
11	Ndfip2	1	no change with or without drug	-1.35	-0.17
12	Kmo	1	no change with or without drug	-1.35	-1.69
13	Smim8	1	high cell count without drug only	0.67	2.19
14	Rpl21	1	low cell count with and without drug	-4.27	-2.87
15	Cybc1	1	no change with or without drug	-0.22	-0.17
16	Csnk1g3	1	low cell count with doxorubicin only (active)	-2.47	-1.52
17	Csnk1g3	2	no change with or without drug	-0.67	1.18
18	D130005J21RIK	1	no change with or without drug	-1.57	-0.34
19	Uqcrh	1	no change with or without drug	0.22	-1.85
20	Frmd3	1	no change with or without drug	-1.35	-0.17
21	Abcg3	1	no change with or without drug	-0.45	-0.51
22	Cd52	1	no change with or without drug	-0.34	0.51
23	Egr1	1	no change with or without drug	0.11	0.51
24	Itm2c	1	no change with or without drug	-1.91	-0.84
25	Dact1	1	no change with or without drug	0.45	1.01
26	Rock2	1	high cell count without drug only	1.69	3.71
27	Napepld	1	no change with or without drug	0.22	-0.67

Continued, starting with the last 4 of the part before.
no.	gene	pool no.	combined z-score class	viability z-score with doxorubicin	viability z-score without drug
24	Itm2c	1	no change with or without drug	-1.91	-0.84
25	Dact1	1	no change with or without drug	0.45	1.01
26	Rock2	1	high cell count without drug only	1.69	3.71
27	Napepld	1	no change with or without drug	0.22	-0.67
28	Or52a5	1	no change with or without drug	-0.79	-1.18
29	Tmem108	1	no change with or without drug	0.79	0.51
30	Cdk13	1	no change with or without drug	1.8	-0.51
31	Gm9946	1	no change with or without drug	0.9	1.52
32	Pitpna	1	no change with or without drug	0.67	0.34
33	Nog	1	no change with or without drug	1.57	-0.34
34	Ing1	1	no change with or without drug	-1.57	-0.84
35	Sun3	1	no change with or without drug	-1.01	-1.18
36	Awat2	1	no change with or without drug	-0.22	0.51
37	Syce2	1	no change with or without drug	-0.67	0.51
38	Dgat2	1	no change with or without drug	0.67	0.34
39	Clcn7	1	no change with or without drug	-1.12	0.84
40	Or10ak7	1	no change with or without drug	-0.56	-0.34
41	Or10ak7	2	no change with or without drug	-0.9	-1.18
42	Hpcal1	1	no change with or without drug	-0.9	-1.18
43	Vipr1	1	no change with or without drug	-0.22	1.35
44	Krr1	1	low cell count with and without drug	-2.36	-3.04
45	Ankrd34c	1	high cell count without drug only	0.45	2.02
46	Rps26	1	low cell count with and without drug	-7.31	-5.23
47	Nox4	1	no change with or without drug	-0.45	-0.51
48	Acot5	1	no change with or without drug	-0.11	0.17
49	Foxo3	1	no change with or without drug	1.12	-0.17
50	Pycr1	1	no change with or without drug	-1.12	-0.17
